No constants are given. Whether binding was seen depends on the method and setting. Binding seen in cells or lysates may run through a third protein. Some binding calls cover weakened binding; strength is not graded here. Sequences can lack the tags named with a protein.
Molecular target: T1, PYR1-like 8 (PYL8) fused to cLUC (Arabidopsis thaliana) (UniProt Q9FGM1)
T1 sequence: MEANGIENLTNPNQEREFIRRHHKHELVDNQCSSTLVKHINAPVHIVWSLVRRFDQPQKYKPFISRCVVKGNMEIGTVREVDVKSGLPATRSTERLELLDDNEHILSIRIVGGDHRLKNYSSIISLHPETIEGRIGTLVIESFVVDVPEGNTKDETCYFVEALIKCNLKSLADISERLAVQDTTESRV
Assay: split reporter; split firefly luciferase complementation (SplitLUC) in N. benthamiana leaves co-infiltrated with nLUC and cLUC fusions and TagRFP; 5 mM D-luciferin sprayed, luminescence imaged with NightSHADE evo CCD (20 s exposure); luminescence normalised to TagRFP fluorescence, n = 6 leaves

B1: DET1- and DDB1-ASSOCIATED 1 (DDA1) fused to nLUC (protein, UniProt Q9FFS4 1-101)
chain: MASILGDLPSFDPHNFSQHRPSDPSNPSKMVPTTYRPTHNRTLPPPDQVITTEVKNILIRSFYQRAEEKLRPKRPATDHLAAEHVNKHFRAASSSSSTQGL
- binding: binds

Source: PMC13109126
